Measurements from publication PMC9881158, “The DEAD-box protein Dbp6 is an ATPase and RNA annealase interacting with the peptidyl transferase center (PTC) of the ribosome” (Nucleic Acids Research, 2023).
Results are given in words; binding and its absence hold for the method and conditions named. In cells and extracts the contact can be indirect. Some entries that bind do so weakly or less than the wild type. Sequences can lack the tags named with a protein.

Biological target: Dbp6 expressed in yeast as HA-Dbp6 and as Dbp6-ZZ (S. cerevisiae) (UniProt P53734)
Assay: co-IP; immunoprecipitation of Dbp6-ZZ with IgG-sepharose from extracts of a yeast strain expressing HA-Dbp6 and ZZ-tagged Dbp6, in the presence of RNase; western blot

B1: Dbp6 expressed in yeast as HA-Dbp6 and as Dbp6-ZZ (enzyme, S. cerevisiae, UniProt P53734 1-629, looked up)
chain: MFASRFDPSQLTAPAASAPEGIVGTTPPAIVPLKRQATESDNEEYGSHQDSDESSNSSSEEDEDRMQVDYGASEEDSSEVEEEESKPSTHSTVLSRFKQTVSLQERLGASDIAESKEDEGIEDEAASTHQLKQIPQPEFVKNPMNLNTNSLQFKSTGWLNTEKIYYDNSLIKPFSDYANELEAKLLQNICKNFSTNTFPIQSIILDSILPVLNFTLNVSKRNFTRRIGDILVNAATGSGKTLAYSIPIVQTLFKRQINRLRCIIIVPTKLLINQVYTTLTKLTQGTSLIVSIAKLENSLKDEHKKLSNLEPDILITTPGRLVDHLNMKSINLKNLKFLIIDEADRLLNQSFQGWCPKLMSHLKTDKLDTLPGNVIKMIFSATLTTNTEKLNGLNLYKPKLFLKQTDKLYQLPNKLNEFNINIPTAKSVYKPLILLYSICQFMAHSPIAAKILIFVKSNESSIRLSKLLQLICESRSQSSVLKNLQNLAVSINSVNSNNSKAENKKIVANFSHHSESAGITILITTDIMSRGIDINDITQVINYDPPMSSQQYVHRVGRTARANELGSAYNLLVGRGERTFFDDLNKDLDRDGKSVQPLELDFTLLESDSELYTSSLESLKNYHNNTAQA
notes: DEAD-box protein Dbp6 of yeast (S. cerevisiae); HA-tagged ORF under the GAL1-10 promoter and wild-type DBP6 cassette in pHA113 between a GAR1 promoter and a ZZ tag; also called ZZ-tagged Dbp6; GAL::HA-DBP6; source: yeast strain expressing HA-Dbp6 as well as ZZ-tagged Dbp6, in extract
- binding: binds weakly
